Results published in patent US10882821B1, “Enantiomeric compound for the reduction of the deleterious activity of extended nucleotide repeat containing genes” (THE BOARD OF TRUSTEES OF THE LELAND STANFORD JUNIOR …, priority 2017, dated 2021).
Some of these results come from one statement about several compounds together.

System: M2-8 cells
Assay: cellular toxicity / cell viability assay (CellTiter-Glo 2.0)
Format: cell-based
Details: 24-hour treatment

| SMILES | LD50 (cytotoxicity, cell viability assay) [nM] |
| --- | --- |
| Brc1ccc2[nH]c3c(c2c1)CCC[C@H]3NCc1ccccc1 [(R)-(+)-HD143, (R)-(+)-N-benzyl-6-bromo-2,3,4,9-tetrahydro-1H-carbazol-1-amine] | > 1000 |
| Brc1ccc2[nH]c3c(c2c1)CCC[C@@H]3NCc1ccccc1.Cl [(S)-(−)-HD143, (S)-(−)-N-Benzyl-6-bromo-2,3,4,9-tetrahydro-1H-carbazol-1-amine Hydrochloride] | > 1000 |
| Brc1ccc2[nH]c3c(c2c1)CCCC3NCc1ccccc1 (racemic) [racemic HD143, N-benzyl-6-bromo-2,3,4,9-tetrahydro-1H-carbazol-1-amine] | > 1000 |
